The supplement of paper PMC5355238
Structures can show the parent of a compound that is named as a salt. This is one part of the list. Most values lie at the level of the controls, where differences are scatter.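 Using flow cytometry, the assay measures the median γH2AX antibody signal in S-phase Reh cells (a human leukemia line). Each score is the number of standard deviations from the median difference of paired plate sets. Candidate hits scored above 2.5; compounds scoring below -2 lowered MK1775-induced damage.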

system: Reh; assay: Z' of S-phase gammaH2AX difference (drug + MK1775 minus drug alone) (Z-score); higher = stronger synergistic S-phase DNA damage with MK1775; conditions: MK1775 concentration 400 nM; first compound 10 µM; 4 h

Q: For `CC1=C(CC(=O)O)c2cc(F)ccc2/C1=C\c1ccc(S(C)(=O)=O)cc1` [Sulindac sulfone] + C=CCn1c(=O)c2cnc(Nc3ccc(N4CCN(C)CC4)cc3)nc2n1-c1cccc(C(C)(C)O)n1 [MK1775], which “Z' of S-phase gammaH2AX difference (Z-score)” value is on record?
A: The value was inactive: -1.62.

Q: With `O=C1CN(/N=C/c2ccc(-c3ccc([N+](=O)[O-])cc3)o2)C(=O)N1` [Dantrolene sodium] + C=CCn1c(=O)c2cnc(Nc3ccc(N4CCN(C)CC4)cc3)nc2n1-c1cccc(C(C)(C)O)n1 [MK1775] as the molecule, how does the “Z' of S-phase gammaH2AX difference (Z-score)” value read?
A: Its value is inactive: 0.702.

Q: Which “Z' of S-phase gammaH2AX difference (Z-score)” value does the source give for `Nc1[nH]nc2nnc(-c3c(-c4ccccc4)nn4ccccc34)cc12` + C=CCn1c(=O)c2cnc(Nc3ccc(N4CCN(C)CC4)cc3)nc2n1-c1cccc(C(C)(C)O)n1 [MK1775] here?
A: The value was inactive: 0.119.

Q: How did the “Z' of S-phase gammaH2AX difference (Z-score)” value turn out when `CC(C)CN(C)c1nc(N)c(C(=O)N=C(N)N)nc1Cl` [5-(N-Methyl-N-isobutyl)amiloride] + C=CCn1c(=O)c2cnc(Nc3ccc(N4CCN(C)CC4)cc3)nc2n1-c1cccc(C(C)(C)O)n1 [MK1775] was run?
A: The value was inactive: 0.825.

Q: `O=C(c1ccc2c(c1)OCCO2)N1CCCCC1` + C=CCn1c(=O)c2cnc(Nc3ccc(N4CCN(C)CC4)cc3)nc2n1-c1cccc(C(C)(C)O)n1 [MK1775] was tested. Which “Z' of S-phase gammaH2AX difference (Z-score)” value did it give?
A: Its value is inactive: -0.114.

Q: For `CN1CCc2cc(O)c(O)cc2C(c2ccccc2)C1` (centres undefined) + C=CCn1c(=O)c2cnc(Nc3ccc(N4CCN(C)CC4)cc3)nc2n1-c1cccc(C(C)(C)O)n1 [MK1775], which “Z' of S-phase gammaH2AX difference (Z-score)” value is on record?
A: The value was inactive: -0.647.

Q: Which “Z' of S-phase gammaH2AX difference (Z-score)” value does the source give for `CN1C(C)(C)CCCC1(C)C` [Pempidine tartrate] + C=CCn1c(=O)c2cnc(Nc3ccc(N4CCN(C)CC4)cc3)nc2n1-c1cccc(C(C)(C)O)n1 [MK1775] here?
A: Its value is inactive: 0.815.

Q: `CCCCCC[C@@H]([C@@H](C)O)n1cnc2c(N)ncnc21` [erythro-9-(2-Hydroxy-3-nonyl)adenine hydrochloride] + C=CCn1c(=O)c2cnc(Nc3ccc(N4CCN(C)CC4)cc3)nc2n1-c1cccc(C(C)(C)O)n1 [MK1775] was tested. Which “Z' of S-phase gammaH2AX difference (Z-score)” value did it give?
A: Its value is inactive: 1.22.

Q: How did the “Z' of S-phase gammaH2AX difference (Z-score)” value turn out when `CC[N+](C)(C)Cc1ccccc1Br` [Bretylium tosylate] + C=CCn1c(=O)c2cnc(Nc3ccc(N4CCN(C)CC4)cc3)nc2n1-c1cccc(C(C)(C)O)n1 [MK1775] was run?
A: Its value is inactive: 0.301.

Q: How did the “Z' of S-phase gammaH2AX difference (Z-score)” value turn out when `C[N+](C)(C)CCCCCC[N+](C)(C)C` [Hexamethonium dichloride] + C=CCn1c(=O)c2cnc(Nc3ccc(N4CCN(C)CC4)cc3)nc2n1-c1cccc(C(C)(C)O)n1 [MK1775] was run?
A: The value was inactive: 0.59.

Q: Which “Z' of S-phase gammaH2AX difference (Z-score)” value does the source give for `C[N+](C)(C)CCCCCC[N+](C)(C)C` [Hexamethonium bromide] + C=CCn1c(=O)c2cnc(Nc3ccc(N4CCN(C)CC4)cc3)nc2n1-c1cccc(C(C)(C)O)n1 [MK1775] here?
A: The value was inactive: -0.634.

Q: Which “Z' of S-phase gammaH2AX difference (Z-score)” value does the source give for `O=C(O)c1cccnc1Nc1cccc(C(F)(F)F)c1` [Niflumic acid] + C=CCn1c(=O)c2cnc(Nc3ccc(N4CCN(C)CC4)cc3)nc2n1-c1cccc(C(C)(C)O)n1 [MK1775] here?
A: The value was inactive: 0.233.

Q: With `Cc1oncc1C(=O)Nc1ccc(C(F)(F)F)cc1` [Leflunomide] + C=CCn1c(=O)c2cnc(Nc3ccc(N4CCN(C)CC4)cc3)nc2n1-c1cccc(C(C)(C)O)n1 [MK1775] as the molecule, how does the “Z' of S-phase gammaH2AX difference (Z-score)” value read?
A: Its value is inactive: -0.131.

Q: Which “Z' of S-phase gammaH2AX difference (Z-score)” value does the source give for `Cc1cn(C2C=CC(CO)O2)c(=O)[nH]c1=O` (centres undefined) [2',3'-didehydro-3'-deoxythymidine] + C=CCn1c(=O)c2cnc(Nc3ccc(N4CCN(C)CC4)cc3)nc2n1-c1cccc(C(C)(C)O)n1 [MK1775] here?
A: The value was active: 4.78.

Q: How did the “Z' of S-phase gammaH2AX difference (Z-score)” value turn out when `CC(CCc1ccccc1)NCC(O)c1ccc(O)c(C(N)=O)c1` (centres undefined) [Labetalol hydrochloride] + C=CCn1c(=O)c2cnc(Nc3ccc(N4CCN(C)CC4)cc3)nc2n1-c1cccc(C(C)(C)O)n1 [MK1775] was run?
A: The value was inactive: -0.197.

Q: How did the “Z' of S-phase gammaH2AX difference (Z-score)” value turn out when `Cc1cc(C(C)(C)C)c(O)c(C)c1CC1=NCCN1` [Oxymetazoline hydrochloride] + C=CCn1c(=O)c2cnc(Nc3ccc(N4CCN(C)CC4)cc3)nc2n1-c1cccc(C(C)(C)O)n1 [MK1775] was run?
A: Its value is inactive: -0.791.

Q: How did the “Z' of S-phase gammaH2AX difference (Z-score)” value turn out when `O=c1cc(N2CCOCC2)oc2c(-c3cccc4c3sc3ccccc34)cccc12` + C=CCn1c(=O)c2cnc(Nc3ccc(N4CCN(C)CC4)cc3)nc2n1-c1cccc(C(C)(C)O)n1 [MK1775] was run?
A: The value was inactive: -0.614.

Q: `CC(C)(C(=O)O)c1ccc(C(O)CCCN2CCC(C(O)(c3ccccc3)c3ccccc3)CC2)cc1` (centres undefined) [Fexofenadine hydrochloride] + C=CCn1c(=O)c2cnc(Nc3ccc(N4CCN(C)CC4)cc3)nc2n1-c1cccc(C(C)(C)O)n1 [MK1775] was tested. Which “Z' of S-phase gammaH2AX difference (Z-score)” value did it give?
A: Its value is inactive: 0.658.

Q: Which “Z' of S-phase gammaH2AX difference (Z-score)” value does the source give for `CC(N)=NCCCC[C@H](N)C(=O)O` [L-N6-(1-Iminoethyl)lysine hydrochloride] + C=CCn1c(=O)c2cnc(Nc3ccc(N4CCN(C)CC4)cc3)nc2n1-c1cccc(C(C)(C)O)n1 [MK1775] here?
A: The value was inactive: -0.274.

Q: For `Cc1ccc(O)c(N=Nc2ccccc2)n1` + C=CCn1c(=O)c2cnc(Nc3ccc(N4CCN(C)CC4)cc3)nc2n1-c1cccc(C(C)(C)O)n1 [MK1775], which “Z' of S-phase gammaH2AX difference (Z-score)” value is on record?
A: Its value is inactive: -0.449.

Q: For `O=C(O)CCC(NC(=O)c1ccccc1C(=O)O)C(=O)O` [Phthalamoyl-L-glutamic acid trisodium] + C=CCn1c(=O)c2cnc(Nc3ccc(N4CCN(C)CC4)cc3)nc2n1-c1cccc(C(C)(C)O)n1 [MK1775], which “Z' of S-phase gammaH2AX difference (Z-score)” value is on record?
A: Its value is inactive: 0.539.

Q: With `CSc1ccc2c(c1)C(N1CCN(C)CC1)Cc1ccccc1S2` (centres undefined) [Methiothepin mesylate] + C=CCn1c(=O)c2cnc(Nc3ccc(N4CCN(C)CC4)cc3)nc2n1-c1cccc(C(C)(C)O)n1 [MK1775] as the molecule, how does the “Z' of S-phase gammaH2AX difference (Z-score)” value read?
A: Its value is inactive: 0.912.

Q: For `CNCCCC1c2ccccc2C=Cc2ccccc21` [Protriptyline hydrochloride] + C=CCn1c(=O)c2cnc(Nc3ccc(N4CCN(C)CC4)cc3)nc2n1-c1cccc(C(C)(C)O)n1 [MK1775], which “Z' of S-phase gammaH2AX difference (Z-score)” value is on record?
A: Its value is inactive: -0.0291.

Q: Which “Z' of S-phase gammaH2AX difference (Z-score)” value does the source give for `CCN1CCC[C@H]1CNC(=O)c1c(OC)ccc(I)c1O` + C=CCn1c(=O)c2cnc(Nc3ccc(N4CCN(C)CC4)cc3)nc2n1-c1cccc(C(C)(C)O)n1 [MK1775] here?
A: The value was inactive: -1.07.
